Source: publication PMC7819943, “Rice protein-binding microarrays: a tool to detect cis-acting elements near promoter regions in rice”
The other results are listed elsewhere or left out.

Sequences of proteins named here, by UniProt entry; tags and fusion partners are left off.
UniProt Q0JBA9, entry or part of it: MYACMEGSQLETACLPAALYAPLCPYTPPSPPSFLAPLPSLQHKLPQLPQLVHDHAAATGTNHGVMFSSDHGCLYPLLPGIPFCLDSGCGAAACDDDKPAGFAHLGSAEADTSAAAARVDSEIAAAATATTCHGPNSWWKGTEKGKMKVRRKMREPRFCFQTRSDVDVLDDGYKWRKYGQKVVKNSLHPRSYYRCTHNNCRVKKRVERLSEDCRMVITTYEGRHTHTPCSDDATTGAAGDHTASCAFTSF

Molecular target: OsWRKY34 (Oryza sativa, UniProt Q0JBA9 1-250)
Assay: protein-binding microarray (RPBM); PBS, 2% BSA, 51.3 ng/ul salmon testes DNA, 50 uM zinc acetate, 200 nM TF, 25 C, 1 h; high values mean tight binding
Settings: protein: recombinant; tags: N-terminal polyhistidine and DsRed monomer fusion (pET32a); label: CyDye5-dUTP incorporated in the synthesized complementary strand; 3' TTTTT single-stranded linker to array surface; dsDNA, one strand shown
Summary of the method: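 Transcription factors, each fused N-terminally to a polyhistidine tag and DsRed, were expressed in E. coli BL21-CodonPlus and purified on Ni–NTA. A custom Agilent array was made double-stranded by primer extension with Cy5-dUTP and blocked with 2% BSA. It was incubated with 200 nM protein in PBS, 2% BSA, salmon testes DNA and 50 µM zinc acetate at 25 °C for 1 h, then washed. The binding signal is per-feature fluorescence intensity (arbitrary units) read on an Axon 4000B scanner.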

Sequence	binding signal
AGCTGGTTTGACCGACCGAGGTACCCACCTTATCACTCGTCGGAGTCACCTAGTGCAG	8550 fluorescence intensity (a.u.)
TGTTTTCATTTTACTGTGTATTTAATATTTTACCAATTACCGGAGTCACCTAGTGCAG	11000 fluorescence intensity (a.u.)
TATCCCTATTATCGCTCCTTTGCCACTGCTGCATCTTAGTCGGAGTCACCTAGTGCAG	8060 fluorescence intensity (a.u.)
CCCAATCCATCAGCCCATCTCCGGTTCTCCTCACATTTAACGGAGTCACCTAGTGCAG	9790 fluorescence intensity (a.u.)
ACCCGCCTGATCTGAGCTCACTGCATTGCCCCGGACTTTCCGGAGTCACCTAGTGCAG	9720 fluorescence intensity (a.u.)
GATCTAGGTACTTTGGGCGTGACCTGCGGAGGCGGGGAGGCGGAGTCACCTAGTGCAG	11800 fluorescence intensity (a.u.)
CATTTTTTCAGTTCAGTTCATATTCATATTTTCTTCTATCCGGAGTCACCTAGTGCAG	8710 fluorescence intensity (a.u.)
TCTCTTTTCTCATTTATTCACTTGCCACATCATTTTTCATCGGAGTCACCTAGTGCAG	8900 fluorescence intensity (a.u.)
AAAATCAGTATCTACATCTTACATCTTAGTAGTCATTTATCGGAGTCACCTAGTGCAG	8330 fluorescence intensity (a.u.)
AGGTCAGGGAGCTGGCGGTGGTGGGCGGGACGGGCAAGCTCGGAGTCACCTAGTGCAG	12000 fluorescence intensity (a.u.)
ACTAATATTTCCATCGTTTTAGGTTATAAGATGTTTTGACCGGAGTCACCTAGTGCAG	8110 fluorescence intensity (a.u.)
AATCTCTCTTCTCCCTCTCGGCGCACACCCAGATTCCCGCCGGAGTCACCTAGTGCAG	8310 fluorescence intensity (a.u.)
TCTCTCCCTAAAAGATCCTCTGCTCGACTGCTCGCTTCCACGGAGTCACCTAGTGCAG	9760 fluorescence intensity (a.u.)
ATGTCAACTACTCTCTTATTTTTCATATTATAAGTTATTTCGGAGTCACCTAGTGCAG	9280 fluorescence intensity (a.u.)
TATCATGGCTCCCAATTGTTAGGATCTACGAGTTCCATCACGGAGTCACCTAGTGCAG	8880 fluorescence intensity (a.u.)
GATTTCCTCTGATACACCACACATAGTATGCTTTCAAAATCGGAGTCACCTAGTGCAG	10100 fluorescence intensity (a.u.)
TGGTTCGCCTCTTATATCCTTTTTTTTCTTTAATTAATTTCGGAGTCACCTAGTGCAG	8270 fluorescence intensity (a.u.)
GCGCTATGATTAATTAATCACCTCGATCCGCCAGCTCGATCGGAGTCACCTAGTGCAG	8140 fluorescence intensity (a.u.)
CATTTCATTGCTATGAAGGGGCCGGGTATTTGGCATGCTACGGAGTCACCTAGTGCAG	8110 fluorescence intensity (a.u.)
GCACGTCAGAATTGACCAGTTCCAACTTCCAACTCCGATCCGGAGTCACCTAGTGCAG	8600 fluorescence intensity (a.u.)
CGCGTCCTGGCTTGCCCCACCGCACCCGACGCCGCGCAACCGGAGTCACCTAGTGCAG	8090 fluorescence intensity (a.u.)

Shown comma-delimited: part of the list above.
Sequence,binding signal
AATCTCTCTTCTCCCTCTCGGCGCACACCCAGATTCCCGCCGGAGTCACCTAGTGCAG,8310 fluorescence intensity (a.u.)
TCTCTCCCTAAAAGATCCTCTGCTCGACTGCTCGCTTCCACGGAGTCACCTAGTGCAG,9760 fluorescence intensity (a.u.)

Later entries:

Sequence	binding signal
TTCTTCTTCTTCTTGCTGCTGCTGCTGCTGCTGCTGAATTCGGAGTCACCTAGTGCAG	9780 fluorescence intensity (a.u.)
ACCAGCAGTAGCGCCTGCTAGTTTTGTTGCCTTGTGAAGACGGAGTCACCTAGTGCAG	8340 fluorescence intensity (a.u.)
ACACACTATAGGACCTCGCTCTACCCTTTGATTATATCTCCGGAGTCACCTAGTGCAG	12500 fluorescence intensity (a.u.)
TAGGTGGTGGTGTCGTATCCTTATTTCGGTTTTTTTTTTTCGGAGTCACCTAGTGCAG	13300 fluorescence intensity (a.u.)
GTCTCGCAATTTACACACAATCTGTGTAATTAGTTATTTTCGGAGTCACCTAGTGCAG	8290 fluorescence intensity (a.u.)
CGCCGTCGGAGATCGCCACCCCGAACCACCCGCGCCGCCGCGGAGTCACCTAGTGCAG	8940 fluorescence intensity (a.u.)
GCCTGACCACCGTTCAACTGCGTCTGCAGTTTTATTCCTTCGGAGTCACCTAGTGCAG	8610 fluorescence intensity (a.u.)
AATCTGCGAATGCATCGCGCAGCGCTTCTCATGGGGCAGTCGGAGTCACCTAGTGCAG	8890 fluorescence intensity (a.u.)
ATTACCTACTACCTCCGTCCCATATTACTTGTCTTTTTGACGGAGTCACCTAGTGCAG	10200 fluorescence intensity (a.u.)
GTCCGTAAACCCGAATCATGGCCAGCGTCTATCCAAATCCCGGAGTCACCTAGTGCAG	9120 fluorescence intensity (a.u.)
GGTGGGTTTCGTGGTACGGCTCGCTCTCGTGGTGGGGAATCGGAGTCACCTAGTGCAG	19700 fluorescence intensity (a.u.)
GTGGTATCTTTTTCAGCGTTGGTTTTTAAGTCGTTAAAAACGGAGTCACCTAGTGCAG	8940 fluorescence intensity (a.u.)
CCAGTTTCTTGGCCGCTCTCTGCCACTGCGCTTGCGCCACCGGAGTCACCTAGTGCAG	8330 fluorescence intensity (a.u.)
CGTCACCGCCGGCGCCATGCCCGCCATCGTATCCTCCCCGCGGAGTCACCTAGTGCAG	9680 fluorescence intensity (a.u.)
TTTACTACACACCATCGAGGTCGTCTTCTCCATCAACCTCCGGAGTCACCTAGTGCAG	9470 fluorescence intensity (a.u.)
ATTCCAATCCATTCCTCCGCGACCTCGTCGTCCGATCATGCGGAGTCACCTAGTGCAG	8670 fluorescence intensity (a.u.)
GTCCCATATCACCGACACCGCCTTATTTAATTTTTTTTATCGGAGTCACCTAGTGCAG	10500 fluorescence intensity (a.u.)
GCTGATGCAGCTGTTGCTTGTTGACTTAGTGACTTAATTTCGGAGTCACCTAGTGCAG	8710 fluorescence intensity (a.u.)
CTCCTCCTCGCCGCCAAACCCGTCCGCCCGAAGCCACCGCCGGAGTCACCTAGTGCAG	10900 fluorescence intensity (a.u.)
TCTCTGGTGGCTCCCTGGCGCTCCTCTTCACTCCATCCTCCGGAGTCACCTAGTGCAG	9090 fluorescence intensity (a.u.)
AGGGAGTTGGTTTTGTTAGCAGAGAAGAAGTTGTAAATTGCGGAGTCACCTAGTGCAG	8180 fluorescence intensity (a.u.)
